Results deposited as PubChem BioAssay AID1508587 (Peter MacCallum Cancer Centre, 2020).
Assay: 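Follow-up of vemurafenib sensitisers scored by lactate made per cell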 (follow-up of hits). Cells: human WM266.4 melanoma cells with a BRAF V600 mutation. Reagents: single siRNA against human genes, 25 nM. Duration: 96 h. Conditions: vemurafenib 300 nM (about IC25), given 48 h after transfection for 48 h. Detection: 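Per-cell lactate from absorbance divided by DAPI nucleus counts, compared with and without vemurafenib, relative to non-targeting siRNA, mean of 2 replicates; nuclear counts also give cell number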. Direction: lactate per cell, drug vs no drug: higher = less drug-induced drop in lactate per cell. Rule for the call: 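a duplex is active when its lactate-per-cell ratio with versus without drug falls under 0.55, i.e. 2 SD below non-targeting; a gene is confirmed if 2 or more of 4 duplexes pass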.
In all, the deposit lists about 1,600 reagents; below is an unselected part. 623 of all reagents (39%) were called active. 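Calls are for each duplex; lactate ratios contain extreme outliers.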 A number with no mark means an inactive call. Reagents against one gene are numbered here. Not all columns of the deposit are shown. No sequences are given here.

gene knocked down | reagent no. | lactate per cell, drug vs no drug
ING3 (inhibitor of growth family member 3) | 1 | 0.43 (active)
ING3 (inhibitor of growth family member 3) | 2 | 0.34 (active)
ING3 (inhibitor of growth family member 3) | 3 | 0.42 (active)
ING3 (inhibitor of growth family member 3) | 4 | 0.57
TP53RK (TP53 regulating kinase) | 1 | 0.5 (active)
TP53RK (TP53 regulating kinase) | 2 | 0.54 (active)
TP53RK (TP53 regulating kinase) | 3 | 0.6
TP53RK (TP53 regulating kinase) | 4 | 0.52 (active)
MTG1 (mitochondrial ribosome associated GTPase 1) | 1 | 0.36 (active)
MTG1 (mitochondrial ribosome associated GTPase 1) | 2 | 0.72
MTG1 (mitochondrial ribosome associated GTPase 1) | 3 | 0.56
MTG1 (mitochondrial ribosome associated GTPase 1) | 4 | 0.5 (active)
PLEC (plectin) | 1 | 0.8
PLEC (plectin) | 2 | 0.58
PLEC (plectin) | 3 | 0.6
PLEC (plectin) | 4 | 0.6
THRSP (thyroid hormone responsive) | 1 | 0.78
THRSP (thyroid hormone responsive) | 2 | 0.63
THRSP (thyroid hormone responsive) | 3 | 0.47 (active)
THRSP (thyroid hormone responsive) | 4 | 0.71
C19orf47 (chromosome 19 open reading frame 47) | 1 | 0.63
C19orf47 (chromosome 19 open reading frame 47) | 2 | 0.78
C19orf47 (chromosome 19 open reading frame 47) | 3 | 0.8
C19orf47 (chromosome 19 open reading frame 47) | 4 | 0.5 (active)
NOX4 (NADPH oxidase 4) | 1 | 0.55
NOX4 (NADPH oxidase 4) | 2 | 0.57
NOX4 (NADPH oxidase 4) | 3 | 0.54 (active)
NOX4 (NADPH oxidase 4) | 4 | 0.42 (active)
HDDC2 (HD domain containing 2) | 1 | 0.34 (active)
HDDC2 (HD domain containing 2) | 2 | 0.54 (active)
HDDC2 (HD domain containing 2) | 3 | 0.48 (active)
HDDC2 (HD domain containing 2) | 4 | 0.52 (active)
CACNB1 (calcium voltage-gated channel auxiliary subunit beta 1) | 1 | 0.57
CACNB1 (calcium voltage-gated channel auxiliary subunit beta 1) | 2 | 0.23 (active)
CACNB1 (calcium voltage-gated channel auxiliary subunit beta 1) | 3 | 0.68
CACNB1 (calcium voltage-gated channel auxiliary subunit beta 1) | 4 | 0.72
MMP3 (matrix metallopeptidase 3) | 1 | 0.49 (active)
MMP3 (matrix metallopeptidase 3) | 2 | 0.48 (active)
MMP3 (matrix metallopeptidase 3) | 3 | 0.5 (active)
MMP3 (matrix metallopeptidase 3) | 4 | 0.32 (active)
NUP35 (nucleoporin 35) | 1 | 0.6
NUP35 (nucleoporin 35) | 2 | 0.46 (active)
NUP35 (nucleoporin 35) | 3 | 0.26 (active)
NUP35 (nucleoporin 35) | 4 | 0.78
APLN (apelin) | 1 | 0.84
APLN (apelin) | 2 | 0.51 (active)
APLN (apelin) | 3 | 0.8
APLN (apelin) | 4 | 0.6
FABP7 (fatty acid binding protein 7) | 1 | 0.43 (active)
FABP7 (fatty acid binding protein 7) | 2 | 0.52 (active)
FABP7 (fatty acid binding protein 7) | 3 | 0.5 (active)
FABP7 (fatty acid binding protein 7) | 4 | 0.48 (active)
